Results on three substances are retold here after PMC7599336.

Chains of the proteins cited; added tags and fusions are not shown.
UniProt P27986: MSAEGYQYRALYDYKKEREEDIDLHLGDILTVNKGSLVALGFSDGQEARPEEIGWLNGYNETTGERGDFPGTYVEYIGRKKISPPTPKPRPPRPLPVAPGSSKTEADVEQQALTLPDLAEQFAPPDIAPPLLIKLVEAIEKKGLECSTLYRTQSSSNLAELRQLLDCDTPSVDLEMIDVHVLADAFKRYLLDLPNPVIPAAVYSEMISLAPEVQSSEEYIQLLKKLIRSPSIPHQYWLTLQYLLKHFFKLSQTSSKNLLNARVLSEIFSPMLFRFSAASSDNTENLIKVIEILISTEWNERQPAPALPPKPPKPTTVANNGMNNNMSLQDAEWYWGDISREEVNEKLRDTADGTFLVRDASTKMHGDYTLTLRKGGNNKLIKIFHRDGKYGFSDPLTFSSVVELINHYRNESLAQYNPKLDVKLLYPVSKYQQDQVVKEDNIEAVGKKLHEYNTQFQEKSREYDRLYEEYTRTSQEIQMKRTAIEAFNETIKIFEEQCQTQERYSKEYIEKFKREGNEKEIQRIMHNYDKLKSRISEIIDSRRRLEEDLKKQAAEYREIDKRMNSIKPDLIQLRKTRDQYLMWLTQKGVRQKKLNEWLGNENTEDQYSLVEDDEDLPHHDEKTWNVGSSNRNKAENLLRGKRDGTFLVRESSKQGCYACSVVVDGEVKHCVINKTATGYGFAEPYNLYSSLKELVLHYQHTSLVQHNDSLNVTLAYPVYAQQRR

Results are given in words; binding and its absence hold for the method and conditions named. Binding seen in cells or lysates may run through a third protein. Some entries that bind do so weakly or less than the wild type.

Assay [1] deals with p85α (PIK3R1), Flag-tagged (pLenti6.3-PIK3R1-Flag) and doxycycline-inducible HA-tagged (pIND-PIK3R1-HA), in MCF7 LTED cells (UniProt P27986). The experiment in a line: co-IP; MCF7 LTED stably transduced with pIND-PIK3R1-HA and pLenti6.3-PIK3R1-Flag, PRR11 siRNA (0, 1, 5, 25 pM) for 48 h with 2 µg/mL doxycycline; lysates precipitated with HA or Flag antibodies, immunoblot. A general note: In western blotting, separated proteins are transferred to a membrane and probed.

In assay [2] the target is p85α (PIK3R1), Flag-tagged (pLenti7.3-PIK3R1-Flag), in HEK293 (UniProt P27986). The experiment in a line: proximity ligation; HEK293 cells transfected with pLenti7.3-PIK3R1-Flag and pLenti7.3-PIK3R1-HA, with or without pLX302-PRR11-V5; HA and Flag antibodies, Duolink In Situ Red.
Assay [3] has the same target. The experiment in a line: co-IP; HEK293 co-transduced with pLenti7.3-PIK3R1-Flag, -PIK3R1-HA and pLX302-PRR11-V5 (0, 0.25, 0.5, 1 µg); lysates precipitated with HA or Flag antibodies, Flag and HA immunoblot.
Assay [4] has as its target T1, Proline rich 11 (PRR11), endogenous (human (endogenous in MCF7 and HCC1428)) (UniProt Q96HE9).
T1 sequence: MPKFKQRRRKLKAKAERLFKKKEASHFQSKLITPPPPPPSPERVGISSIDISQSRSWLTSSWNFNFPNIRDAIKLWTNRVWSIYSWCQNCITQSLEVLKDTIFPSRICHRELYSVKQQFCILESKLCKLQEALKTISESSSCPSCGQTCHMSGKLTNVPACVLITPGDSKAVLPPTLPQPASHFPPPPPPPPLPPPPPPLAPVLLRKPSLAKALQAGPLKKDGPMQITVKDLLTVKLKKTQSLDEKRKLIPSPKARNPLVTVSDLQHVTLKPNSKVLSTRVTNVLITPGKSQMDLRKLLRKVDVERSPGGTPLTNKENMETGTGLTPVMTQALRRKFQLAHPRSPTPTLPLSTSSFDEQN
Nature of the assay: proximity ligation; MCF7 LTED cells, endogenous proteins, PRR11 and p85 antibodies, Duolink In Situ Red.

In assay [5] the target is T1, Proline rich 11 (PRR11), endogenous (human (endogenous in MCF7 and HCC1428)). The experiment in a line: co-IP; MCF7 parental, MCF7 LTED, HCC1428 parental and HCC1428 LTED lysates precipitated with PRR11 or IgG antibodies (Dynabeads Protein G, 1 mg lysate, overnight 4 °C), immunoblot.

On to “p85α (PIK3R1), Flag-tagged (pLenti6.3-PIK3R1-Flag) and doxycycline-inducible HA-tagged (pIND-PIK3R1-HA), in MCF7 LTED cells (from UniProt P27986 1-724)”, for which the binding entry in assay [1] was “binds”.

As to “p85α (PIK3R1), Flag-tagged (pLenti7.3-PIK3R1-Flag), in HEK293 (from UniProt P27986 1-724)”, the binding result in assay [2] and in assay [3] was “binds” each time.

On to “p85α regulatory subunit of PI3K, endogenous (from UniProt P27986 1-724)”, for which the binding result in assay [4] and in assay [5] was “binds” in each case.
